This passage reports binding signal (log2 enrichment (interaction score)) results from article PMC8384837.

Changes are numbered by the printed parent chain. The list shows a part of the results. For some assays here: At the low end of the ranking the order means little. For some assays here: Construct or isoform of the protein are uncertain. Bounds are passed on as bounds.

What all share (details): yeast three-hybrid, YBZ-1, SC-Leu-His + 0.5 mM 3-AT, 4 days
For assay [1], the target named is T1, PUM1 PUF domain R1-QFR R2-VFQ R7-NPG S863Q + R864F + Q867R + N899V + Y900F + S1079N + N1080P + E1083G (UniProt Q14671).
T1 sequence: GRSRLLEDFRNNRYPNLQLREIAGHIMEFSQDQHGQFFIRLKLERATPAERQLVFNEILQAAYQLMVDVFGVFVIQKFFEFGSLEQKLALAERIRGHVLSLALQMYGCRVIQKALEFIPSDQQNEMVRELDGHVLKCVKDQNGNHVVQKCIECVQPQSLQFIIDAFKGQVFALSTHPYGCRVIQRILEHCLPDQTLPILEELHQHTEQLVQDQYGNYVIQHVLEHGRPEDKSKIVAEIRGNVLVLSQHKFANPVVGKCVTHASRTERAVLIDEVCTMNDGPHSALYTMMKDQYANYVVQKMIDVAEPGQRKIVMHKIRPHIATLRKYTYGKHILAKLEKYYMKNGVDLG

Assay [2] concerns the target T2, PUM1 PUF domain R5-PHQ R6-SWD C1007P + R1008H + N1043S + Y1044W + Q1047D (UniProt Q14671).
T2 sequence: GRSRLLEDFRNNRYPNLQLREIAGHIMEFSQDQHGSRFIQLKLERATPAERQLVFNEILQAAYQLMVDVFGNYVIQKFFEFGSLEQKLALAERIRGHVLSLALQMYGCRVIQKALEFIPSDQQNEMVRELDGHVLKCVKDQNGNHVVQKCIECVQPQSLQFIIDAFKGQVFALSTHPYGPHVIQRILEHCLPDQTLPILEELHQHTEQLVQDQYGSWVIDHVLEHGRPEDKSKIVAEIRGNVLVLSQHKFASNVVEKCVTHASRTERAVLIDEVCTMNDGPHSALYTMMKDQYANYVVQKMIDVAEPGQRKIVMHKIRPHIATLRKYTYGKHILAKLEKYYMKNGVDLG

Assay [3] addresses T3, PUM1 PUF domain R6-SWD R7-NPG N1043S + Y1044W + Q1047D + S1079N + N1080P + E1083G (Homo sapiens) (UniProt Q14671).
T3 sequence: T2 sequence with P180C, H181R, S252N, N253P, E256G

The target of assay [4] is T4, PUM1 PUF domain R3-THE R4-TFR R7-NPG C935T + R936H + Q939E + N971T + H972F + Q975R + S1079N + N1080P + E1083G (UniProt Q14671).
T4 sequence: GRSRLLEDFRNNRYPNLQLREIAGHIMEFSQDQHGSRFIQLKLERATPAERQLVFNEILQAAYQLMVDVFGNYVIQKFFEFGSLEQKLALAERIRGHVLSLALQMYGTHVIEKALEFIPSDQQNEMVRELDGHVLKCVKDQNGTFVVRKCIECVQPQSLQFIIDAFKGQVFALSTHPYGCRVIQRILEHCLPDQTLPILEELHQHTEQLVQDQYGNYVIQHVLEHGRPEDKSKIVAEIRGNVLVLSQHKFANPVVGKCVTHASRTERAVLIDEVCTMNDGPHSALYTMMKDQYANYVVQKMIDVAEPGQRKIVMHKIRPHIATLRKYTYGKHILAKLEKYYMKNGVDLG

The target in assay [5] is T5, PUM1 PUF domain R2-VFQ R3-THE R4-TFR N899V + Y900F + C935T + R936H + Q939E + N971T + H972F + Q975R (UniProt Q14671).
T5 sequence: T4 sequence with N72V, Y73F, N252S, P253N, G256E

As to “GGCUAGAACUAGUGGAUCCCCCGGCGCCCGGCGGCUCGAGCCCGGGUAAGUUGACGGAGUCUGCAUGCCGCCGGGCGCCAUGCCUGCAGGUCGACUCUAGAAAACAUG”, the binding signal (log2 enrichment (interaction score)) in assay [1] is -2.96; in assay [2] it was -7.73.
Take “GGCUAGAACUAGUGGAUCCCCCGGCGCCCGGCGGCUCGAGCCCGGGUAAGUUGUCACAGUCUGCAUGCCGCCGGGCGCCAUGCCUGCAGGUCGACUCUAGAAAACAUG”: the binding signal (log2 enrichment (interaction score)) in assay [1] was -6.04; in assay [2] it was less than -7.91.
The corresponding values for “GGCUAGAACUAGUGGAUCCCCCGGCGCCCGGCGGCUCGAGCCCGGGUAAGUUUAAAGCGUCUGCAUGCCGCCGGGCGCCAUGCCUGCAGGUCGACUCUAGAAAACAUG” are -3.15 and less than -8.41.
The matching figures for “GGCUAGAACUAGUGGAUCCCCCGGCGCCCGGCGGCUCGAGCCCGGGUAAGUAGAAACAGUCUGCAUGCCGCCGGGCGCCAUGCCUGCAGGUCGACUCUAGAAAACAUG”: less than -5.84 and -7.59.
With “GGCUAGAACUAGUGGAUCCCCCGGCGCCCGGCGGCUCGAGCCCGGGUAAGUUGAGAUGGUCUGCAUGCCGCCGGGCGCCAUGCCUGCAGGUCGACUCUAGAAAACAUG”, the figures for the binding signal (log2 enrichment (interaction score)) in assay [1], in assay [2] and in assay [3] were less than -6.3, less than -7.95 and -0.56, respectively.
For the sequence “GGCUAGAACUAGUGGAUCCCCCGGCGCCCGGCGGCUCGAGCCCGGGUAAGUUGGAGAAGUCUGCAUGCCGCCGGGCGCCAUGCCUGCAGGUCGACUCUAGAAAACAUG”, the binding signal (log2 enrichment (interaction score)) in assay [1] is -5.45; in assay [4] it was -2.3; in assay [2], -6.83.
With “GGCUAGAACUAGUGGAUCCCCCGGCGCCCGGCGGCUCGAGCCCGGGUAAGUUGCAAACGUCUGCAUGCCGCCGGGCGCCAUGCCUGCAGGUCGACUCUAGAAAACAUG”, the binding signal (log2 enrichment (interaction score)) is -5.93 in assay [1] and less than -7.54 in assay [2].
For “GGCUAGAACUAGUGGAUCCCCCGGCGCCCGGCGGCUCGAGCCCGGGUAAGUUGAGAAAGUCUGCAUGCCGCCGGGCGCCAUGCCUGCAGGUCGACUCUAGAAAACAUG”, the results for the binding signal (log2 enrichment (interaction score)) in assay [1] and in assay [2] were -5.59 and -7.52, respectively.
The corresponding values for “GGCUAGAACUAGUGGAUCCCCCGGCGCCCGGCGGCUCGAGCCCGGGUAAGUUGGAAAAGUCUGCAUGCCGCCGGGCGCCAUGCCUGCAGGUCGACUCUAGAAAACAUG” are less than -5.89 and -5.26.
As for “GGCUAGAACUAGUGGAUCCCCCGGCGCCCGGCGGCUCGAGCCCGGGUAAGAAUAAGGAGUCUGCAUGCCGCCGGGCGCCAUGCCUGCAGGUCGACUCUAGAAAACAUG”, the binding signal (log2 enrichment (interaction score)) is -5.26 in assay [1], -7.5 in assay [2] and -0.51 in assay [3].
Turning to “GGCUAGAACUAGUGGAUCCCCCGGCGCCCGGCGGCUCGAGCCCGGGUAAGGUUAUUGAGUCUGCAUGCCGCCGGGCGCCAUGCCUGCAGGUCGACUCUAGAAAACAUG”, the binding signal (log2 enrichment (interaction score)) is -4.97 in assay [1] and -2.31 in assay [4].
On to “GGCUAGAACUAGUGGAUCCCCCGGCGCCCGGCGGCUCGAGCCCGGGUAAGUGUUAAGAGUCUGCAUGCCGCCGGGCGCCAUGCCUGCAGGUCGACUCUAGAAAACAUG”, for which the binding signal (log2 enrichment (interaction score)) in assay [1] was -5.88; in assay [2] it was -7.59.
Take “GGCUAGAACUAGUGGAUCCCCCGGCGCCCGGCGGCUCGAGCCCGGGUAAGUUGUACUUGUCUGCAUGCCGCCGGGCGCCAUGCCUGCAGGUCGACUCUAGAAAACAUG”: the binding signal (log2 enrichment (interaction score)) was -6.42 in assay [1] and -7.74 in assay [2].
With “GGCUAGAACUAGUGGAUCCCCCGGCGCCCGGCGGCUCGAGCCCGGGUAAGCUGAAAUUGUCUGCAUGCCGCCGGGCGCCAUGCCUGCAGGUCGACUCUAGAAAACAUG”, the binding signal (log2 enrichment (interaction score)) in assay [1] is less than -5.76; in assay [2] it was -6.8.
The matching figures for “GGCUAGAACUAGUGGAUCCCCCGGCGCCCGGCGGCUCGAGCCCGGGUAAGAUGAAAAAGUCUGCAUGCCGCCGGGCGCCAUGCCUGCAGGUCGACUCUAGAAAACAUG”: -5.56 and less than -7.77.
For the sequence “GGCUAGAACUAGUGGAUCCCCCGGCGCCCGGCGGCUCGAGCCCGGGUAAGUGUAGGUUGUCUGCAUGCCGCCGGGCGCCAUGCCUGCAGGUCGACUCUAGAAAACAUG”, the figures for the binding signal (log2 enrichment (interaction score)) in assay [1], in assay [2] and in assay [3] were less than -5.93, -7.07 and -1.65, respectively.
On to “GGCUAGAACUAGUGGAUCCCCCGGCGCCCGGCGGCUCGAGCCCGGGUAAGUUAGAAUAGUCUGCAUGCCGCCGGGCGCCAUGCCUGCAGGUCGACUCUAGAAAACAUG”, for which the results for the binding signal (log2 enrichment (interaction score)) in assay [1], in assay [4] and in assay [2] were less than -5.02, -2.58 and less than -6.85, respectively.
Turning to “GGCUAGAACUAGUGGAUCCCCCGGCGCCCGGCGGCUCGAGCCCGGGUAAGUUGUAAUAGUCUGCAUGCCGCCGGGCGCCAUGCCUGCAGGUCGACUCUAGAAAACAUG”, the binding signal (log2 enrichment (interaction score)) in assay [1] was -5.41; in assay [2], less than -7.16.
Take “GGCUAGAACUAGUGGAUCCCCCGGCGCCCGGCGGCUCGAGCCCGGGUAAGGUAUCGAAGUCUGCAUGCCGCCGGGCGCCAUGCCUGCAGGUCGACUCUAGAAAACAUG”: in assay [5], the binding signal (log2 enrichment (interaction score)) was -5.78.
Regarding “GGCUAGAACUAGUGGAUCCCCCGGCGCCCGGCGGCUCGAGCCCGGGUAAGUUCUCAACGUCUGCAUGCCGCCGGGCGCCAUGCCUGCAGGUCGACUCUAGAAAACAUG”, the binding signal (log2 enrichment (interaction score)) is -4.24 in assay [1] and -0.86 in assay [3].
